These are yes or no findings as the source states them, for the method shown. In cells and extracts the contact can be indirect. Some binding calls cover weakened binding; strength is not graded here.
Experiments:
[1] = molecular target: WT β-TrCP2 (construct of Fig. S3 and Fig. S7B) (human) (UniProt Q9UKB1); experiment: co-IP; supplementary Figs. S3A, S3B, S7A, S7B, legends not shown; the methods describe only IP of exogenous FLAG- or HA-tagged proteins from cell lysates with FLAG or HA beads
[2] = molecular target: FLAG-tagged β-TrCP1 (human) (UniProt Q9Y297); experiment: co-IP; HEK293 cells transfected with FLAG-tagged bait for 48 h; lysate (50 mM Tris pH 7.5, 0.15 M NaCl, 1% NP-40, 0.1% SDS, 0.5% sodium deoxycholate) incubated with FLAG beads 3 h at 4 °C; endogenous prey detected by immunoblot; the text calls it a pull-down assay
FLAG-tagged CUL1 (human) = FLAG-tagged CUL1 (human) (UniProt Q13616); experiment: as above

By UniProt entry, the sequences of proteins in these tests, tags left out. Where a name states a change or a piece, a line headed by the entry shows the natural chain unless it says otherwise.
UniProt Q9UKB1: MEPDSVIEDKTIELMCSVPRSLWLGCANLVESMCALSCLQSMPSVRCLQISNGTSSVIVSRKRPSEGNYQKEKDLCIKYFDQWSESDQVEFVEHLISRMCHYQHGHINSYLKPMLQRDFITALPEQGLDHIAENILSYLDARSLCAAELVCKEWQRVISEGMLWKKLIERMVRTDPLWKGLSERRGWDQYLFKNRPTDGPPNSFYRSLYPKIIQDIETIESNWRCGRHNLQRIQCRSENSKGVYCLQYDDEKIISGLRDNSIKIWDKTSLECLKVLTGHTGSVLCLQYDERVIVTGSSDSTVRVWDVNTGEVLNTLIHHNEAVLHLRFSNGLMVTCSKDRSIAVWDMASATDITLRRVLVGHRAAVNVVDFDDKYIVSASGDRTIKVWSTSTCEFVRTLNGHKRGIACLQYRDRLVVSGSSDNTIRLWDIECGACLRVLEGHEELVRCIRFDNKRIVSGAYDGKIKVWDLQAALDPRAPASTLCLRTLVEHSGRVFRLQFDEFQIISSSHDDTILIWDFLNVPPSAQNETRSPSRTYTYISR
UniProt Q9Y297: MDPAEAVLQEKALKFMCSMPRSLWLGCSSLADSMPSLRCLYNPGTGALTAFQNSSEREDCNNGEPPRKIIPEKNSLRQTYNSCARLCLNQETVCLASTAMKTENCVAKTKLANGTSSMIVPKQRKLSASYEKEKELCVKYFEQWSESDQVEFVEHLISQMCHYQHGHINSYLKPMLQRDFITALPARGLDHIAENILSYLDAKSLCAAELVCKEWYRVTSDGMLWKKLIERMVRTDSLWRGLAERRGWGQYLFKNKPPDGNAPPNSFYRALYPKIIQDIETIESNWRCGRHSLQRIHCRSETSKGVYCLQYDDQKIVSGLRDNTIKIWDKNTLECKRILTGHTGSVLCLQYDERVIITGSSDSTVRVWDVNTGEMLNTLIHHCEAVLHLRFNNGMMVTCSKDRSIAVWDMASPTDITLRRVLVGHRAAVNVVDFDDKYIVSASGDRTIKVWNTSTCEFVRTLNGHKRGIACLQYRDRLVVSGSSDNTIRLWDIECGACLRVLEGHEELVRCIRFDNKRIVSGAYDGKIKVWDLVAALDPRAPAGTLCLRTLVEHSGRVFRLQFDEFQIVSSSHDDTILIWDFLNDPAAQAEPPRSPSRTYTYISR
UniProt Q13616: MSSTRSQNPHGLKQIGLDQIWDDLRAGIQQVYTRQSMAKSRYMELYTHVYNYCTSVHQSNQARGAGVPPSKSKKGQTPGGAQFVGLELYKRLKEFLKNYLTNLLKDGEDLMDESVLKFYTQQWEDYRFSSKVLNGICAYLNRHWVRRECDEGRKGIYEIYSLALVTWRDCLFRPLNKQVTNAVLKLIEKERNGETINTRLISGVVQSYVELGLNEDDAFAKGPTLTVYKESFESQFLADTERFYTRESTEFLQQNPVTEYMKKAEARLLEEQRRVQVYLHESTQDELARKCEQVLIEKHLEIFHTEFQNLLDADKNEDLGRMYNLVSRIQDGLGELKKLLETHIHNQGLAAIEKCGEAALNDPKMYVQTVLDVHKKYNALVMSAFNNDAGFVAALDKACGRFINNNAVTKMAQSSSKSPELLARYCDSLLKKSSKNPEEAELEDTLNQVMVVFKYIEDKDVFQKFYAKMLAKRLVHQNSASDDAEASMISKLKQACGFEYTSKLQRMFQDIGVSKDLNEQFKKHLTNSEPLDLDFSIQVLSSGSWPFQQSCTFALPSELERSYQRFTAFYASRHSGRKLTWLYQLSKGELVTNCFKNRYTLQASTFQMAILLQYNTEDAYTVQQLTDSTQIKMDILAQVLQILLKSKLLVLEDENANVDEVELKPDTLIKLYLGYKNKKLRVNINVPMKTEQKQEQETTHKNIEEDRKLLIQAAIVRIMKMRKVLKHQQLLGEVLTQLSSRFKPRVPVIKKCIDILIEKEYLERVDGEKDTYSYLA

| binding [1] | binding [2] | binding (FLAG-tagged CUL1 (human)) | Substance |
| --- | --- | --- | --- |
| binds |  |  | WT β-TrCP1 (construct of Fig. S3 and Fig. S7A) (from UniProt Q9Y297 1-605) |
|  | binds | binds | endogenous β-TrCP2 (from UniProt Q9UKB1 1-542) |
| binds |  |  | WT β-TrCP2 (construct of Fig. S3 and Fig. S7B) (from UniProt Q9UKB1 1-542) |
|  |  | binds | endogenous β-TrCP1 (from UniProt Q9Y297 1-605) |

Source: paper PMC7206145
